Data source: PubChem BioAssay AID1224830 (NIAID, 2016)
The whole screen tested about 18,000 reagents; shown is a random part of them. Of all reagents, about 2,900 (16%) were called active. 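Calls are made per well; low scores hint the gene aids the LPS response, high scores that it dampens it.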 Repeated entries: four replicate wells of each siRNA pool.

Purpose: 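Regulators of TLR4 signalling towards TNF-alpha in macrophage-like cells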 (primary screen)
Cells: human THP-1 monocytic leukaemia cells, TNF dual-luciferase reporter clone, PMA-differentiated to macrophage-like cells
Reagent: siRNA pool against human genes, 50 nM
Time to read-out: LPS for 4 h, given about 3 days after siRNA transfection
Treatment: bacterial LPS (TLR4 ligand), 10 ng/ml
Measured: 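Ratio of firefly to renilla light, scaled to the plate median and expressed as a robust z-score per replicate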
Direction: TNF reporter robust z-score: higher = stronger TNF reporter response to LPS
Hit rule: 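Each well counts as active if its z-score is over 2.8 or under -1.5; controls are left without a call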

| TNF reporter robust z-score | outcome | gene |
| --- | --- | --- |
| 0.74 | inactive | PLCB1 (phospholipase C beta 1) |
| -0.57 | inactive | PLCB1 (phospholipase C beta 1) |
| 1.01 | inactive | PLCB1 (phospholipase C beta 1) |
| -0.04 | inactive | PLCB1 (phospholipase C beta 1) |
| 1.01 | inactive | MCOLN3 (mucolipin TRP cation channel 3) |
| 1.45 | inactive | MCOLN3 (mucolipin TRP cation channel 3) |
| -0.23 | inactive | MCOLN3 (mucolipin TRP cation channel 3) |
| -0.69 | inactive | MCOLN3 (mucolipin TRP cation channel 3) |
| 0.2 | inactive | YJEFN3 (YjeF N-terminal domain containing 3) |
| 0.4 | inactive | YJEFN3 (YjeF N-terminal domain containing 3) |
| 0.9 | inactive | YJEFN3 (YjeF N-terminal domain containing 3) |
| -0.27 | inactive | YJEFN3 (YjeF N-terminal domain containing 3) |
| -0.44 | inactive | CTNNB1 (catenin beta 1) |
| 0.02 | inactive | CTNNB1 (catenin beta 1) |
| -0.36 | inactive | CTNNB1 (catenin beta 1) |
| 0.67 | inactive | CTNNB1 (catenin beta 1) |
| -0.31 | inactive | HSPA8 (heat shock protein family A (Hsp70) member 8) |
| -0.01 | inactive | HSPA8 (heat shock protein family A (Hsp70) member 8) |
| -0.2 | inactive | HSPA8 (heat shock protein family A (Hsp70) member 8) |
| 0.95 | inactive | HSPA8 (heat shock protein family A (Hsp70) member 8) |
| 1.12 | inactive | C20orf141 (chromosome 20 open reading frame 141) |
| 1.81 | inactive | C20orf141 (chromosome 20 open reading frame 141) |
| 0.61 | inactive | C20orf141 (chromosome 20 open reading frame 141) |
| 2.51 | inactive | C20orf141 (chromosome 20 open reading frame 141) |
| 2.99 | active | ANKRD36 (ankyrin repeat domain 36) |
| -0.37 | inactive | ANKRD36 (ankyrin repeat domain 36) |
| -0.2 | inactive | ANKRD36 (ankyrin repeat domain 36) |
| -0.45 | inactive | ANKRD36 (ankyrin repeat domain 36) |
| 1.09 | inactive | CPEB4 (cytoplasmic polyadenylation element binding protein 4) |
| 0.51 | inactive | CPEB4 (cytoplasmic polyadenylation element binding protein 4) |
| 0.57 | inactive | CPEB4 (cytoplasmic polyadenylation element binding protein 4) |
| 0.71 | inactive | CPEB4 (cytoplasmic polyadenylation element binding protein 4) |
| 2 | inactive | LMO3 (LIM domain only 3) |
| 3.15 | active | LMO3 (LIM domain only 3) |
| 0.82 | inactive | LMO3 (LIM domain only 3) |
| 2.25 | inactive | LMO3 (LIM domain only 3) |
| 1.63 | inactive | PLAAT5 (phospholipase A and acyltransferase 5) |
| 1.69 | inactive | PLAAT5 (phospholipase A and acyltransferase 5) |
| 1.74 | inactive | PLAAT5 (phospholipase A and acyltransferase 5) |
| 1.38 | inactive | PLAAT5 (phospholipase A and acyltransferase 5) |
| 1.05 | inactive | OTOL1 (otolin 1) |
| 2.56 | inactive | OTOL1 (otolin 1) |
| -0.54 | inactive | OTOL1 (otolin 1) |
| 1.65 | inactive | OTOL1 (otolin 1) |
| 0.69 | inactive | CREB3L2 (cAMP responsive element binding protein 3 like 2) |
| 0.62 | inactive | CREB3L2 (cAMP responsive element binding protein 3 like 2) |
| 0.07 | inactive | CREB3L2 (cAMP responsive element binding protein 3 like 2) |
| 0.25 | inactive | CREB3L2 (cAMP responsive element binding protein 3 like 2) |
| -2.04 | active | ADORA3 (adenosine A3 receptor) |
| -1.65 | active | ADORA3 (adenosine A3 receptor) |
| -1.31 | inactive | ADORA3 (adenosine A3 receptor) |
| -1.41 | inactive | ADORA3 (adenosine A3 receptor) |
| -0.17 | inactive | PITRM1 (pitrilysin metallopeptidase 1) |
| 0.33 | inactive | PITRM1 (pitrilysin metallopeptidase 1) |
| 2.15 | inactive | PITRM1 (pitrilysin metallopeptidase 1) |
| 0.07 | inactive | PITRM1 (pitrilysin metallopeptidase 1) |
| 0.3 | inactive | KAT14 (lysine acetyltransferase 14) |
| -0.5 | inactive | KAT14 (lysine acetyltransferase 14) |
| -0.62 | inactive | KAT14 (lysine acetyltransferase 14) |
| 0.01 | inactive | KAT14 (lysine acetyltransferase 14) |

16 entries already listed, arranged by “TNF reporter robust z-score”, low to high:
| TNF reporter robust z-score | outcome | gene |
| --- | --- | --- |
| -0.69 | inactive | MCOLN3 (mucolipin TRP cation channel 3) |
| -0.44 | inactive | CTNNB1 (catenin beta 1) |
| -0.36 | inactive | CTNNB1 (catenin beta 1) |
| -0.31 | inactive | HSPA8 (heat shock protein family A (Hsp70) member 8) |
| -0.27 | inactive | YJEFN3 (YjeF N-terminal domain containing 3) |
| -0.2 | inactive | HSPA8 (heat shock protein family A (Hsp70) member 8) |
| -0.01 | inactive | HSPA8 (heat shock protein family A (Hsp70) member 8) |
| 0.02 | inactive | CTNNB1 (catenin beta 1) |
| 0.2 | inactive | YJEFN3 (YjeF N-terminal domain containing 3) |
| 0.4 | inactive | YJEFN3 (YjeF N-terminal domain containing 3) |
| 0.61 | inactive | C20orf141 (chromosome 20 open reading frame 141) |
| 0.67 | inactive | CTNNB1 (catenin beta 1) |
| 0.9 | inactive | YJEFN3 (YjeF N-terminal domain containing 3) |
| 0.95 | inactive | HSPA8 (heat shock protein family A (Hsp70) member 8) |
| 1.12 | inactive | C20orf141 (chromosome 20 open reading frame 141) |
| 1.81 | inactive | C20orf141 (chromosome 20 open reading frame 141) |

Continued:
| TNF reporter robust z-score | outcome | gene |
| --- | --- | --- |
| -1.14 | inactive | MSRB2 (methionine sulfoxide reductase B2) |
| -0.89 | inactive | MSRB2 (methionine sulfoxide reductase B2) |
| -0.62 | inactive | MSRB2 (methionine sulfoxide reductase B2) |
| 0.04 | inactive | MSRB2 (methionine sulfoxide reductase B2) |
| 3.23 | active | ZNF271P (zinc finger protein 271, pseudogene) |
| 0.74 | inactive | ZNF271P (zinc finger protein 271, pseudogene) |
| 1.42 | inactive | ZNF271P (zinc finger protein 271, pseudogene) |
| -0.44 | inactive | ZNF271P (zinc finger protein 271, pseudogene) |
| -1.65 | active | GLI4 (GLI family zinc finger 4) |
| -1.37 | inactive | GLI4 (GLI family zinc finger 4) |
| -1.32 | inactive | GLI4 (GLI family zinc finger 4) |
| -1.47 | inactive | GLI4 (GLI family zinc finger 4) |
| -0.8 | inactive | ACTA1 (actin alpha 1, skeletal muscle) |
| 0.19 | inactive | ACTA1 (actin alpha 1, skeletal muscle) |
| -0.04 | inactive | ACTA1 (actin alpha 1, skeletal muscle) |
| 1.14 | inactive | ACTA1 (actin alpha 1, skeletal muscle) |
| 0.87 | inactive | KDM2A (lysine demethylase 2A) |
| -1.07 | inactive | KDM2A (lysine demethylase 2A) |
| -1.32 | inactive | KDM2A (lysine demethylase 2A) |
| -1.18 | inactive | KDM2A (lysine demethylase 2A) |
| -2.13 | active | TIPARP (TCDD inducible poly(ADP-ribose) polymerase) |
| -2.18 | active | TIPARP (TCDD inducible poly(ADP-ribose) polymerase) |
| -2.14 | active | TIPARP (TCDD inducible poly(ADP-ribose) polymerase) |
| -2.04 | active | TIPARP (TCDD inducible poly(ADP-ribose) polymerase) |
| -1.24 | inactive | ABCG5 (ATP binding cassette subfamily G member 5) |
| -0.92 | inactive | ABCG5 (ATP binding cassette subfamily G member 5) |
| -1.01 | inactive | ABCG5 (ATP binding cassette subfamily G member 5) |
| 0.01 | inactive | ABCG5 (ATP binding cassette subfamily G member 5) |
| 0.75 | inactive | DES (desmin) |
| -0.09 | inactive | DES (desmin) |
| -0.44 | inactive | DES (desmin) |
| 0.03 | inactive | CCDC90B (coiled-coil domain containing 90B) |
| -0.4 | inactive | CCDC90B (coiled-coil domain containing 90B) |
| -0.08 | inactive | CCDC90B (coiled-coil domain containing 90B) |
| 0.1 | inactive | CCDC90B (coiled-coil domain containing 90B) |
| 0.76 | inactive | BEND6 (BEN domain containing 6) |
| 0.25 | inactive | BEND6 (BEN domain containing 6) |
| 0.56 | inactive | BEND6 (BEN domain containing 6) |
| 1.06 | inactive | BEND6 (BEN domain containing 6) |
| -1.08 | inactive | PALD1 (phosphatase domain containing paladin 1) |
| -0.61 | inactive | PALD1 (phosphatase domain containing paladin 1) |
| -0.91 | inactive | PALD1 (phosphatase domain containing paladin 1) |
| -0.65 | inactive | PALD1 (phosphatase domain containing paladin 1) |
| -0.23 | inactive | ATP5MF (ATP synthase membrane subunit f) |
| 0.48 | inactive | ATP5MF (ATP synthase membrane subunit f) |
| -0.49 | inactive | ATP5MF (ATP synthase membrane subunit f) |
| -0.97 | inactive | RSPO2 (R-spondin 2) |
| -0.82 | inactive | RSPO2 (R-spondin 2) |
| -0.52 | inactive | RSPO2 (R-spondin 2) |
| -1.11 | inactive | RSPO2 (R-spondin 2) |
